PubChem BioAssay AID686938, Drosophila RNAi Screening Center – 2013

- Assay: 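Looking for CRAC channel components and the factors controlling them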 (primary screen)
- Cells: Drosophila S2R+ cells
- Reagent: long dsRNA against Drosophila genes, about 0.25 µg dsRNA per well, roughly 10,000 cells
- Time to read-out: 5 days of knock-down before the calcium assay
- Challenge: thapsigargin (SERCA pump blocker) to empty calcium stores; entry signal taken 4 min after adding it
- Measured: 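Per-well fluo-4 fluorescence in two replicates, unnormalised, measured in resting cells and 4 min after store depletion by the SERCA blocker thapsigargin; ratio of the two present in few wells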
- Direction: calcium entry signal: higher = stronger calcium signal after store depletion; entry to resting ratio: higher = more calcium entry relative to resting level; resting calcium signal: higher = higher resting calcium signal
- Active means: 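Called when the plate z-score of the entry-to-rest ratio, mean of duplicates, falls below −3; wells with low overall dye signal (Fmax z below −2) or more than five off-targets excluded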
- Meaning of the calls: active = strongly reduced calcium entry; inactive = no strong reduction
The screen tested about 23,000 reagents; shown is an unselected part of those that have a named target and a result. Of all reagents, 75 (0.33%) got an active call. 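Raw plate signals without normalisation; calls rest on plate z-scores that were not deposited; ratio present for only 364 wells.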 Unmarked entries are inactive. The numbers tell different reagents against one gene apart. A plus sign joins genes that one reagent is predicted to hit. Not given: the dose of the treatment.

With knock-down of lncRNA:CR31781 (long non-coding RNA:CR31781) #1, the record shows calcium entry signal, replicate 1 (fluorescence units) = 5.04e7; resting calcium signal, replicate 1 (fluorescence units) = 2.42e7.
After knock-down of lncRNA:CR31781 (long non-coding RNA:CR31781) #2 the results were calcium entry signal, replicate 1 (fluorescence units) = 3.99e7; calcium entry signal, replicate 2 (fluorescence units) = 2.58e7; resting calcium signal, replicate 1 (fluorescence units) = 1.71e7; resting calcium signal, replicate 2 (fluorescence units) = 1.13e7.
For CG34451 #1, the values are calcium entry signal, replicate 1 (fluorescence units) = 2.70e7; calcium entry signal, replicate 2 (fluorescence units) = 2.69e7; resting calcium signal, replicate 1 (fluorescence units) = 1.35e7; resting calcium signal, replicate 2 (fluorescence units) = 1.33e7.
Knock-down of CG34451 #2 gave: calcium entry signal, replicate 1 (fluorescence units) = 2.71e7; calcium entry signal, replicate 2 (fluorescence units) = 2.97e7; resting calcium signal, replicate 1 (fluorescence units) = 1.26e7; resting calcium signal, replicate 2 (fluorescence units) = 1.45e7.
With knock-down of Rip11 (Rab11 interacting protein) the results were calcium entry signal, replicate 1 (fluorescence units) = 3.55e7; calcium entry signal, replicate 2 (fluorescence units) = 3.29e7; resting calcium signal, replicate 1 (fluorescence units) = 1.65e7; resting calcium signal, replicate 2 (fluorescence units) = 1.49e7.
Silencing of lmgA + lmgB gave: calcium entry signal, replicate 1 (fluorescence units) = 3.04e7; calcium entry signal, replicate 2 (fluorescence units) = 4.48e7; resting calcium signal, replicate 1 (fluorescence units) = 1.51e7; resting calcium signal, replicate 2 (fluorescence units) = 1.92e7.
CG6142 gave calcium entry signal, replicate 1 (fluorescence units) = 3.07e7; calcium entry signal, replicate 2 (fluorescence units) = 4.70e7; resting calcium signal, replicate 1 (fluorescence units) = 1.84e7; resting calcium signal, replicate 2 (fluorescence units) = 1.93e7.
For CG10265 #1, the values are calcium entry signal, replicate 1 (fluorescence units) = 4.14e7; calcium entry signal, replicate 2 (fluorescence units) = 3.50e7; resting calcium signal, replicate 1 (fluorescence units) = 1.93e7; resting calcium signal, replicate 2 (fluorescence units) = 1.55e7.
With knock-down of CG10265 #2, the record shows calcium entry signal, replicate 1 (fluorescence units) = 3.79e7; calcium entry signal, replicate 2 (fluorescence units) = 3.95e7; resting calcium signal, replicate 1 (fluorescence units) = 2.22e7; resting calcium signal, replicate 2 (fluorescence units) = 1.73e7.
After knock-down of esn (espinas) #1, the screen gave calcium entry signal, replicate 1 (fluorescence units) = 2.02e7; calcium entry signal, replicate 2 (fluorescence units) = 3.15e7; resting calcium signal, replicate 1 (fluorescence units) = 1.10e7; resting calcium signal, replicate 2 (fluorescence units) = 1.26e7.
esn (espinas) #2 scored calcium entry signal, replicate 1 (fluorescence units) = 4.89e7; calcium entry signal, replicate 2 (fluorescence units) = 3.97e7; resting calcium signal, replicate 1 (fluorescence units) = 2.20e7; resting calcium signal, replicate 2 (fluorescence units) = 1.84e7.
Depletion of esn (espinas) #3 gave: calcium entry signal, replicate 1 (fluorescence units) = 4.58e7; calcium entry signal, replicate 2 (fluorescence units) = 4.46e7; resting calcium signal, replicate 1 (fluorescence units) = 2.15e7; resting calcium signal, replicate 2 (fluorescence units) = 1.97e7.
Silencing of fon (fondue) came out at: calcium entry signal, replicate 1 (fluorescence units) = 4.48e7; resting calcium signal, replicate 1 (fluorescence units) = 2.27e7.
With knock-down of jus (julius seizure) #1, the screen gave calcium entry signal, replicate 1 (fluorescence units) = 2.36e7; calcium entry signal, replicate 2 (fluorescence units) = 3.27e7; resting calcium signal, replicate 1 (fluorescence units) = 1.38e7; resting calcium signal, replicate 2 (fluorescence units) = 1.47e7.
Silencing of jus (julius seizure) #2 resulted in: calcium entry signal, replicate 1 (fluorescence units) = 2.45e7; calcium entry signal, replicate 2 (fluorescence units) = 3.19e7; resting calcium signal, replicate 1 (fluorescence units) = 1.29e7; resting calcium signal, replicate 2 (fluorescence units) = 1.52e7.
jus (julius seizure) #3 scored calcium entry signal, replicate 1 (fluorescence units) = 5.73e7; calcium entry signal, replicate 2 (fluorescence units) = 3.61e7; resting calcium signal, replicate 1 (fluorescence units) = 2.87e7; resting calcium signal, replicate 2 (fluorescence units) = 1.47e7.
CG13995 #1 scored calcium entry signal, replicate 1 (fluorescence units) = 2.97e7; calcium entry signal, replicate 2 (fluorescence units) = 4.64e7; resting calcium signal, replicate 1 (fluorescence units) = 1.55e7; resting calcium signal, replicate 2 (fluorescence units) = 2.26e7.
CG13995 #2 scored calcium entry signal, replicate 1 (fluorescence units) = 4.05e7; calcium entry signal, replicate 2 (fluorescence units) = 3.63e7; resting calcium signal, replicate 1 (fluorescence units) = 1.98e7; resting calcium signal, replicate 2 (fluorescence units) = 1.87e7.
Silencing of CG13995 #3 came out at: calcium entry signal, replicate 1 (fluorescence units) = 4.26e7; calcium entry signal, replicate 2 (fluorescence units) = 3.56e7; resting calcium signal, replicate 1 (fluorescence units) = 2.05e7; resting calcium signal, replicate 2 (fluorescence units) = 1.63e7.
Silencing of Tengl3 (Testis EndoG-Like 3) came out at: calcium entry signal, replicate 1 (fluorescence units) = 2.99e7; calcium entry signal, replicate 2 (fluorescence units) = 4.49e7; resting calcium signal, replicate 1 (fluorescence units) = 1.35e7; resting calcium signal, replicate 2 (fluorescence units) = 2.19e7.
CG3021 #1 showed calcium entry signal, replicate 1 (fluorescence units) = 3.78e7; calcium entry signal, replicate 2 (fluorescence units) = 4.63e7; entry to resting ratio 2.1; resting calcium signal, replicate 1 (fluorescence units) = 1.84e7; resting calcium signal, replicate 2 (fluorescence units) = 1.93e7.
Against CG3021 #2, the values are calcium entry signal, replicate 1 (fluorescence units) = 3.48e7; calcium entry signal, replicate 2 (fluorescence units) = 3.78e7; entry to resting ratio 2.2; resting calcium signal, replicate 1 (fluorescence units) = 1.59e7; resting calcium signal, replicate 2 (fluorescence units) = 1.56e7.
Silencing of CG15446 resulted in: calcium entry signal, replicate 1 (fluorescence units) = 3.43e7; calcium entry signal, replicate 2 (fluorescence units) = 4.64e7; resting calcium signal, replicate 1 (fluorescence units) = 1.99e7; resting calcium signal, replicate 2 (fluorescence units) = 2.15e7.
Against CG42323 #1, the entry reads calcium entry signal, replicate 1 (fluorescence units) = 4.67e7; calcium entry signal, replicate 2 (fluorescence units) = 3.56e7; resting calcium signal, replicate 1 (fluorescence units) = 2.40e7; resting calcium signal, replicate 2 (fluorescence units) = 1.72e7.
After knock-down of CG42323 #2, the record shows calcium entry signal, replicate 1 (fluorescence units) = 4.04e7; calcium entry signal, replicate 2 (fluorescence units) = 3.62e7; resting calcium signal, replicate 1 (fluorescence units) = 2.24e7; resting calcium signal, replicate 2 (fluorescence units) = 1.67e7.
After knock-down of CG12883 the results were calcium entry signal, replicate 1 (fluorescence units) = 2.34e7; calcium entry signal, replicate 2 (fluorescence units) = 4.04e7; resting calcium signal, replicate 1 (fluorescence units) = 1.32e7; resting calcium signal, replicate 2 (fluorescence units) = 1.79e7.
For SmydA-1 (SET and MYND domain containing, arthropod-specific, member 1), the values are calcium entry signal, replicate 1 (fluorescence units) = 3.88e7; calcium entry signal, replicate 2 (fluorescence units) = 4.50e7; resting calcium signal, replicate 1 (fluorescence units) = 1.70e7; resting calcium signal, replicate 2 (fluorescence units) = 2.02e7.

4 entries from above, ordered by “resting calcium signal, replicate 2 (fluorescence units)”, ascending.
esn (espinas) #1 — calcium entry signal, replicate 1 (fluorescence units): 2.02e7; calcium entry signal, replicate 2 (fluorescence units): 3.15e7; resting calcium signal, replicate 1 (fluorescence units): 1.10e7; resting calcium signal, replicate 2 (fluorescence units): 1.26e7
CG10265 #1 — calcium entry signal, replicate 1 (fluorescence units): 4.14e7; calcium entry signal, replicate 2 (fluorescence units): 3.50e7; resting calcium signal, replicate 1 (fluorescence units): 1.93e7; resting calcium signal, replicate 2 (fluorescence units): 1.55e7
CG10265 #2 — calcium entry signal, replicate 1 (fluorescence units): 3.79e7; calcium entry signal, replicate 2 (fluorescence units): 3.95e7; resting calcium signal, replicate 1 (fluorescence units): 2.22e7; resting calcium signal, replicate 2 (fluorescence units): 1.73e7
CG6142 — calcium entry signal, replicate 1 (fluorescence units): 3.07e7; calcium entry signal, replicate 2 (fluorescence units): 4.70e7; resting calcium signal, replicate 1 (fluorescence units): 1.84e7; resting calcium signal, replicate 2 (fluorescence units): 1.93e7
